The other results are listed elsewhere or left out.

By UniProt entry, the sequences of proteins in these tests, tags left out.
UniProt Q0JBA9, entry or part of it: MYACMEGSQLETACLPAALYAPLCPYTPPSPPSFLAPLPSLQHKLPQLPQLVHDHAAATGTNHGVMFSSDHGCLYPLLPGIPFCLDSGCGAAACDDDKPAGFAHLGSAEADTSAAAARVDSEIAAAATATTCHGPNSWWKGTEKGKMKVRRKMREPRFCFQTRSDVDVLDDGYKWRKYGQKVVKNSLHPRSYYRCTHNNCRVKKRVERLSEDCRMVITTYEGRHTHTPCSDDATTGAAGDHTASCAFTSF

The assay concerns the target OsWRKY34 (Oryza sativa, UniProt Q0JBA9 1-250). The assay can be described thus: protein-binding microarray (RPBM); PBS, 2% BSA, 51.3 ng/ul salmon testes DNA, 50 uM zinc acetate, 200 nM TF, 25 C, 1 h; high values mean tight binding. Conditions: protein: recombinant; tags: N-terminal polyhistidine and DsRed monomer fusion (pET32a); label: CyDye5-dUTP incorporated in the synthesized complementary strand; 3' TTTTT single-stranded linker to array surface; dsDNA, one strand shown. A digest of the protocol: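 In PBS with 2% BSA, salmon testes DNA and 50 µM zinc acetate, 200 nM protein was incubated on a custom Agilent array at 25 °C for 1 h and then washed off. The array had been made double-stranded by primer extension with Cy5-dUTP and blocked with 2% BSA. The proteins were transcription factors fused N-terminally to polyhistidine and DsRed, expressed in E. coli BL21-CodonPlus and purified on Ni–NTA. The binding signal is per-feature fluorescence intensity (arbitrary units) from an Axon 4000B scanner.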
As for “CCACCAGTCCACCACCCGCTTCCCCTATATATCGTATCCCCGGAGTCACCTAGTGCAG”, the binding signal was 9380 fluorescence intensity (a.u.).
As to “GTCACTGGCATGTGGGTTCCACCTATTCCGGGCCCACATGCGGAGTCACCTAGTGCAG”, the binding signal is 8970 fluorescence intensity (a.u.).
The same measure for “CTTGGTAATCGTCTAGCTAATTTTGGCAAACTATCCGCCACGGAGTCACCTAGTGCAG”: 8490 fluorescence intensity (a.u.).
As for “TGTATGTGTCTTAAACTGTTGTTGAATTCTGTGCGTGTAACGGAGTCACCTAGTGCAG”, the binding signal is 8300 fluorescence intensity (a.u.).
The same measure for “GGGGAGGAATTATGGACTATTTGGATGGGCTTTTTTTACTCGGAGTCACCTAGTGCAG”: 8030 fluorescence intensity (a.u.).
“TTCTGTCAAACTAAGATAAGTGGTGGGCGGTGGAGTTATTCGGAGTCACCTAGTGCAG”: the binding signal was 11500 fluorescence intensity (a.u.).
Under “CAAGTAATCCAGTGCCTTCATGACCTGCAAATTCTATGCCCGGAGTCACCTAGTGCAG” stands 9670 fluorescence intensity (a.u.); under “TTTCCTTCGCGCCAATCCCACCGCGCGCGCCCACAAATACCGGAGTCACCTAGTGCAG”, 14200 fluorescence intensity (a.u.).
The same measure for “GTGGAGAGTATCTTCTTCTTCTTCTTCTTCTTCTTCTTCTCGGAGTCACCTAGTGCAG”: 8430 fluorescence intensity (a.u.); for “AGTCGGGCATTACGGCAAGGTATCTCTCTCCCGCTGACAACGGAGTCACCTAGTGCAG”: 8960 fluorescence intensity (a.u.); for “ACCGATTTCCCTCCGCCGCAACCGGAGCTCACCTCACCTCCGGAGTCACCTAGTGCAG”: 8840 fluorescence intensity (a.u.).
Turning to “TTCTCCTCTTTAATTCTCTGCGCTACAAATATGTATACACCGGAGTCACCTAGTGCAG”, the binding signal is 10100 fluorescence intensity (a.u.).
Turning to “TCGAACTATGTTTCTGGAGTTGTTTGTGTTAAAGTCCCAACGGAGTCACCTAGTGCAG”, the binding signal is 8860 fluorescence intensity (a.u.).
For “CTCCTATGGGCGGCGGCGGCGGCGGGCGGCGGGCCTATCCCGGAGTCACCTAGTGCAG”, the binding signal was 10600 fluorescence intensity (a.u.).
The same measure for “TCCGTTTGCCATTACACCACACAGGCACACATGCCACACACGGAGTCACCTAGTGCAG”: 9160 fluorescence intensity (a.u.).
On to “ATTTCCCGTCCTTGTCCTAAATGAGTACTAATTTTGATTTCGGAGTCACCTAGTGCAG”, for which the binding signal is 10400 fluorescence intensity (a.u.).
Under “GCTTGCACCGTCTACTTATCTCAATTCTCAAGCTCTCAGCCGGAGTCACCTAGTGCAG” stands 10100 fluorescence intensity (a.u.); under “AATGGTAGAGCAAGGATAGGTTTGTGTGTGTGTGTGTGACCGGAGTCACCTAGTGCAG”, 11300 fluorescence intensity (a.u.); under “ATTCCCATATATATTGCTTTAGTTTTCCTTAATTTTCATCCGGAGTCACCTAGTGCAG”, 8830 fluorescence intensity (a.u.).
On to “CGCGCCGCGGCGCTCGTCTCGTCTCCCCGGGTTTTTTAAACGGAGTCACCTAGTGCAG”, for which the binding signal was 10800 fluorescence intensity (a.u.).
For “TTTGTTTGTTTTGGGCCTCTACATCTGCACAGGCTCTCTTCGGAGTCACCTAGTGCAG”, the binding signal was 10100 fluorescence intensity (a.u.).
With “AGTAACTTTCGTCATTGTCACTATCACCTTCTCAAACGCCCGGAGTCACCTAGTGCAG”, the binding signal was 9850 fluorescence intensity (a.u.).
As to “TAGGGTTTGGACTTCGTTGCAACCGGCGCTACTTCGCGACCGGAGTCACCTAGTGCAG”, the binding signal is 9590 fluorescence intensity (a.u.).
Take “TGCTACACACTTTTAAGTATACCCATCTATCCCCTGCTGACGGAGTCACCTAGTGCAG”: the binding signal is 8620 fluorescence intensity (a.u.).
Consider “TAGGTAGTTGGGTGGGTTTAGGATTCGTATGTGGATAACGCGGAGTCACCTAGTGCAG”, for which the binding signal was 11900 fluorescence intensity (a.u.).
The same measure for “GGAGTGACTTGGACAATCTGTTTACGTCATCTTATTATACCGGAGTCACCTAGTGCAG”: 9030 fluorescence intensity (a.u.); for “GCCTCTGCCCATCGCATCGATCCCCGCCGTCCCTCCACCCCGGAGTCACCTAGTGCAG”: 11000 fluorescence intensity (a.u.); for “GAAAATTTTCCCTCCACACCACTTCAAAAATTTCATCTCTCGGAGTCACCTAGTGCAG”: 8800 fluorescence intensity (a.u.).
Turning to “TGCCTGCCTCCACCTCACCTGTCTGCCGCGCGCCAAATATCGGAGTCACCTAGTGCAG”, the binding signal is 9280 fluorescence intensity (a.u.).
Under “ATTCACCAAACCCCTGAATTACGAGGTCTTGATTGCACCACGGAGTCACCTAGTGCAG” stands 8220 fluorescence intensity (a.u.); under “AGCAGTTGTATTGTTGTGAAATTTAATTTGCTCTTTGACCCGGAGTCACCTAGTGCAG”, 8200 fluorescence intensity (a.u.).
Under “GTCGAAATTTTGGTAATATTGCCAACTTATCAAAATTTTGCGGAGTCACCTAGTGCAG” stands 8490 fluorescence intensity (a.u.); under “AGTTGTAAGATAGGTTTGCGTTGGTAGAGGGTAATCCTGACGGAGTCACCTAGTGCAG”, 9800 fluorescence intensity (a.u.).
On to “ATCACACCCTAAATTGACTGTATTTGTGCTGAATTTTACACGGAGTCACCTAGTGCAG”, for which the binding signal is 8630 fluorescence intensity (a.u.).
Regarding “CCTGAGTCCCAGCCAGTGTGAGTTACTAGTATCTCTTTTCCGGAGTCACCTAGTGCAG”, the binding signal is 8290 fluorescence intensity (a.u.).
Under “TCCTAGACCTAGTACATTTTCACCAACTCGCCATATTCTACGGAGTCACCTAGTGCAG” stands 10000 fluorescence intensity (a.u.); under “GGTGGTGGTGGTGGTGCCGGAGCTGGGGAGAAGAGGAGGACGGAGTCACCTAGTGCAG”, 9350 fluorescence intensity (a.u.).
Under “GTTCTCAGTTGCTGTTTCTTCCAATGAATATTATGTCTTTCGGAGTCACCTAGTGCAG” stands 9530 fluorescence intensity (a.u.); under “ACTTCTGCTAAGCTCCATCTTGCTCGCCACGCGCGTCCACCGGAGTCACCTAGTGCAG”, 8860 fluorescence intensity (a.u.).
Under “CTCCCTTCGTTTCGAAATGTTTGACGCCGTTGACTTTTTACGGAGTCACCTAGTGCAG” stands 22800 fluorescence intensity (a.u.); under “CTTTGTACGATCTGTGTACCAAATCTTTCGTTCTTTTCTTCGGAGTCACCTAGTGCAG”, 9260 fluorescence intensity (a.u.).
Regarding “CCTCTCTTTTCTCTTCTCTTCTCGTCTTTCCCATCTCGCGCGGAGTCACCTAGTGCAG”, the binding signal was 8850 fluorescence intensity (a.u.).
The same measure for “ACTGCTTCCGCTTTTCTTAAGTTTTTAAATTGGCCTATTCCGGAGTCACCTAGTGCAG”: 10000 fluorescence intensity (a.u.); for “TCCTGGCCCAACACCTGCTCCATCCGCCGCTCCTACTCTGCGGAGTCACCTAGTGCAG”: 8150 fluorescence intensity (a.u.).
Under “AATGGCTCCGCAGCTTGTTTCTAGTCTCCTTAAAACTTACCGGAGTCACCTAGTGCAG” stands 8700 fluorescence intensity (a.u.).
Consider “CTCCATCTGCTGCGCCCATCCACTCCACTCTTCCCTCCTCCGGAGTCACCTAGTGCAG”, for which the binding signal was 9360 fluorescence intensity (a.u.).
Under “CCTAGACCCCTTCTCACGCCGCCAGCCCGTCACACCGAGTCGGAGTCACCTAGTGCAG” stands 8790 fluorescence intensity (a.u.); under “CCGTCTCTTCTTCATTACAGCGACACCAACGTTGATTTCCCGGAGTCACCTAGTGCAG”, 10800 fluorescence intensity (a.u.).
Turning to “TGAGTTGTTTATTATCCTTCATTTCGAGTTGGGACCTTCACGGAGTCACCTAGTGCAG”, the binding signal is 8190 fluorescence intensity (a.u.).
Under “TTGCTCTTGTTAATGTTTGGCTTTCTTCTTCTTCTGCTGCCGGAGTCACCTAGTGCAG” stands 8600 fluorescence intensity (a.u.); under “ATTCGCGAAAGCTCAGCTGCTTCTGCTTCTTCTTCTTCTTCGGAGTCACCTAGTGCAG”, 9420 fluorescence intensity (a.u.).
In the case of “AACACACACATATATACACTTGCTTTGACTAACAGAGTCTCGGAGTCACCTAGTGCAG”, the binding signal was 10400 fluorescence intensity (a.u.).
Under “GCAAGATCTCCATGATGCGACAGCTCTACCGTTACAATTACGGAGTCACCTAGTGCAG” stands 8100 fluorescence intensity (a.u.); under “GTCGGATCGCCACCCACCTCGCCGCCGCTGCTTGCTTCACCGGAGTCACCTAGTGCAG”, 10500 fluorescence intensity (a.u.).

(Values after PMC7819943, “Rice protein-binding microarrays: a tool to detect cis-acting elements near promoter regions in rice”.)
